# Source: article doi:10.1101/2021.04.23.441060
# Protein sequences, listed by entry. Tags and fused reporters are not part of them.
# UniProt P48432: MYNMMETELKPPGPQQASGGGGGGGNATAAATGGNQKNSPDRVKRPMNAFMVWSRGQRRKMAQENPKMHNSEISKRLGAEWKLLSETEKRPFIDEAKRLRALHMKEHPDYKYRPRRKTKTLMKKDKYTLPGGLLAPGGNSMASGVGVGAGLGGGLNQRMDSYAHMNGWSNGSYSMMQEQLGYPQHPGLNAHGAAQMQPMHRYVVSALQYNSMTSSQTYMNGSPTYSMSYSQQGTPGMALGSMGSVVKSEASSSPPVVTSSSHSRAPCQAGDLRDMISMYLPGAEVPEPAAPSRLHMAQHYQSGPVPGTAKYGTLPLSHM
# UniProt Q08122: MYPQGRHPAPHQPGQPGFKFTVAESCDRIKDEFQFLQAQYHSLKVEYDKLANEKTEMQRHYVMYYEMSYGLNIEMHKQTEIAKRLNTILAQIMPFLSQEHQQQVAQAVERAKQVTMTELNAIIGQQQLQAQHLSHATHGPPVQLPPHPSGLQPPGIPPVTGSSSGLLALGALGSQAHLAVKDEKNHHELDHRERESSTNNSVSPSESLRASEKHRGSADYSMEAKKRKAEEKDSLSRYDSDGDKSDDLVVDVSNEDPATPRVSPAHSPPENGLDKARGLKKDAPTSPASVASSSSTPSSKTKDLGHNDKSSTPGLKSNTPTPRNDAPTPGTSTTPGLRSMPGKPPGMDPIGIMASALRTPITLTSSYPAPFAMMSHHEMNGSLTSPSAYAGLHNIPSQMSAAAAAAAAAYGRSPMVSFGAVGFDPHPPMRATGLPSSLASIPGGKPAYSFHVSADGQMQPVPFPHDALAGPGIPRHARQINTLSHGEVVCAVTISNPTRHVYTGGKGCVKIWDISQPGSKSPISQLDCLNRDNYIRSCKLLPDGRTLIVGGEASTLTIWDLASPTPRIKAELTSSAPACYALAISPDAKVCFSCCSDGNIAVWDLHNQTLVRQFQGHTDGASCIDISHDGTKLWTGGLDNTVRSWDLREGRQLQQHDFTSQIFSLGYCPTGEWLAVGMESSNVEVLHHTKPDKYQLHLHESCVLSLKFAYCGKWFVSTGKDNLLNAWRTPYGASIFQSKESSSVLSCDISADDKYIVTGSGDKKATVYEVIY
# UniProt O09106: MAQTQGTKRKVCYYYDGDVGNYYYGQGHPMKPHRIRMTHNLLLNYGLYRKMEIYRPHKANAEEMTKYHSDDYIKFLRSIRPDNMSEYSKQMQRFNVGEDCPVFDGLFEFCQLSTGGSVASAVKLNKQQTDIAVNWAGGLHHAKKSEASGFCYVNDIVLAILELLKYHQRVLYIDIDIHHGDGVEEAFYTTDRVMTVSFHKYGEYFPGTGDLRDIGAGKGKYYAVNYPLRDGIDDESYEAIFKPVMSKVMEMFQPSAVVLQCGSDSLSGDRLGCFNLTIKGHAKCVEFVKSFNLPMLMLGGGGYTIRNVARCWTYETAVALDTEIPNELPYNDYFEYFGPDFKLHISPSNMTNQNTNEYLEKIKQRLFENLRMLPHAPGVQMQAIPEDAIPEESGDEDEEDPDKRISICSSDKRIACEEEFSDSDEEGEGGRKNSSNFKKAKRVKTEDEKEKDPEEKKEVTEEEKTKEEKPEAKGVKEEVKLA
# UniProt P11103: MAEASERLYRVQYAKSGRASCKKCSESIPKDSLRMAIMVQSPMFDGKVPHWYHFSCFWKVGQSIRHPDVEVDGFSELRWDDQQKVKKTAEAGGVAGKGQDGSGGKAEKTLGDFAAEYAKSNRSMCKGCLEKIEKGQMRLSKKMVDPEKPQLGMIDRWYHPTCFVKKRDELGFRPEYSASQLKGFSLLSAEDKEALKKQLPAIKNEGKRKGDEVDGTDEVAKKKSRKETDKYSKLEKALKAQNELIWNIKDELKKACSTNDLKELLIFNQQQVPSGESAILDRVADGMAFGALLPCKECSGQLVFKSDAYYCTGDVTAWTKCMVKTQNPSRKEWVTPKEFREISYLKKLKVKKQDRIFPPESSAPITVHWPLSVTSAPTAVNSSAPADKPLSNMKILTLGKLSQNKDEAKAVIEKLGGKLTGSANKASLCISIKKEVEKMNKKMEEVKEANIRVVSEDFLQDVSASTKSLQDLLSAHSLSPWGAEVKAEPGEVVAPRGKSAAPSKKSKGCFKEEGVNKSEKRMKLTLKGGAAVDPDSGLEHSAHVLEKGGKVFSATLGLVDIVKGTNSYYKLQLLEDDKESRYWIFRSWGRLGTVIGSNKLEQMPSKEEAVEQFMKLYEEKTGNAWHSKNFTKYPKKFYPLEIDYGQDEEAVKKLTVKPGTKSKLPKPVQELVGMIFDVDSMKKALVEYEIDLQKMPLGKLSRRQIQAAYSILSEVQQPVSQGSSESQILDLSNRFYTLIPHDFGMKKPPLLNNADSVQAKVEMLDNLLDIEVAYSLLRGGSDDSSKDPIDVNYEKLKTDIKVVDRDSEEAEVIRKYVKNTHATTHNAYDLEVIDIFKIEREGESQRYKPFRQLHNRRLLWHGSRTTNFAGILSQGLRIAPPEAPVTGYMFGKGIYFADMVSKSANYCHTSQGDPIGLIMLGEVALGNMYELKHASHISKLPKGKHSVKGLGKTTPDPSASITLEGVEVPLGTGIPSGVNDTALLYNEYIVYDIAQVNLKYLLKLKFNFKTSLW
# UniProt P70288: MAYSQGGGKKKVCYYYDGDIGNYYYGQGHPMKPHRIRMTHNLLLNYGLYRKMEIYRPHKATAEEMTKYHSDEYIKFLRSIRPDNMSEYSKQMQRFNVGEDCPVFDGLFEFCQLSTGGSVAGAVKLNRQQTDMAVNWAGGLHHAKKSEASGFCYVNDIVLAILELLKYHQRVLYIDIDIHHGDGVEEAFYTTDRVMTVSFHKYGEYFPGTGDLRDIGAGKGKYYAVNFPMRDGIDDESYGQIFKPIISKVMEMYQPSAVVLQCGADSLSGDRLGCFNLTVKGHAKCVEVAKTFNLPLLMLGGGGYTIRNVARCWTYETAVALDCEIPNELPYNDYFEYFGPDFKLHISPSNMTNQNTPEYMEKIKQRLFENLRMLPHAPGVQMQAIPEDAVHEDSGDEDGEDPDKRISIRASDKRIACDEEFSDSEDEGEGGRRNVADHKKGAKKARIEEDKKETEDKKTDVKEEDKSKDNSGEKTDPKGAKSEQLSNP
# These are yes or no findings as the source states them, for the method shown. In cells and extracts the contact can be indirect. Some results given as binding are weak or reduced against the parent protein; the word gives no strength.
# Molecular target: Sox2 (not stated (endogenous in primary rodent OLs; mouse and rat cultures were made)) (UniProt P48432)
# Assay: co-IP
row,Substance,binding
1,TLE3 (from UniProt Q08122 1-772),binds
2,HDAC1 (from UniProt O09106 1-482) (enzyme),binds
3,poly (ADP-ribose) polymerase 1 (PARP1) (from UniProt P11103 1-1013) (enzyme),binds
4,HDAC2 (from UniProt P70288 1-488) (enzyme),binds
